# Experimental data from PubChem BioAssay (NCATS).
# This is one part of the list. Shown are side measurements of this screen, not its main read-out; they come without a call. The list favours compounds with an active or inconclusive main result. For some assays here: Words in brackets tell the shape of the fitted curve; partial curves, single points and poor fits give uncertain potencies.
# What was measured:
# [1] = qHTS Assay for Modulators of Human Peripheral Myelin Protein 22 (PMP22) Expression/Activity (AID 1967); conditions: Cell-based PMP22 reporter, dual-color luciferase ratio
# Summary of the method: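 Luminescence ratio of Pmp22 promoter-driven green luciferase to EF-alpha-driven red luciferase, in engineered mouse MSC80 Schwann cells, served as read-out. Compounds were incubated 24h; untreated cells defined 0% Activity; curves were classified by r2, magnitude and activity.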
# [2] = qHTS Validation Assay to Find Inhibitors of Chronic Active B-Cell Receptor Signaling (AID 485345); conditions: ABC-DLBCL cells, chronic BCR signaling reporter
# Summary of the method: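 TMD8 ABC-DLBCL cells stably carrying doxycycline-inducible IkappaBalpha–green luciferase fusion plus unfused red luciferase; compounds 46 uM to 3 nM, 4 h at 37C with doxycycline. Corrected green/red luminescence ratio normalized to 10 uM MG-132 and basal cell wells; curves fitted.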
# [3] = S16 Schwann cell PMP22 intronic element beta-lactamase assay (AID 624044); conditions: S16 rat Schwann cells, PMP22 element beta-lactamase FRET, 24 h; measured here: 460 nm blue channel
# Summary of the method: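 Rat S16 Schwann cells with beta-Lac driven by a PMP22 intronic element, compound-treated 24 h at 37 °C. LiveBLAzer FRET B/G read: 460 nm normalized to potassium clavulanate vs DMSO; 535 nm FRET as viability; concentration-effect curves classified.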
# [4] = Nrf2 qHTS screen for inhibitors: Validation (AID 493153); conditions: A549 ARE-Fluc reporter, 18-24 h; AC50: CellTiter-Fluor fluorescence read, measured here: cytotoxicity CellTiter-Fluor AC50; viability change: measured here: cytotoxicity max response
# Summary of the method: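 Luminescence from an ARE-firefly luciferase reporter in A549 cells gives Nrf2 inhibition; an earlier CellTiter-Fluor fluorescent read flags cytotoxicity. Cells in 5% FBS OPTI-MEM received compound dilution series for 18-24 h at 37°C.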
# [5] = qHTS Assay for Inhibitors of PDE-IV (AID 607); conditions: HEK293 ACTOne CNG channel cells, membrane potential fluorescence; measured here: parental cell counter-screen
# Summary of the method: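 ACTOne HEK293 cells carry a modified cAMP-gated CNG channel and express endogenous PDE4; plated 1000 cells/well, compounds up to 22.9 uM final. Membrane-potential dye fluorescence (ex 535/em 590) was read; parental cells received 10 uM forskolin + 100 uM RO 20-1724.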
# [6] = measured here: red reporter channel AC50, EF-alpha promoter control reporter in MSC80 mouse Schwann cells
# [7] = measured here: green reporter channel AC50, mouse Pmp22 promoter in mouse Schwann cells
# [8] = measured here: CBR control luciferase (viability counter)
smiles,measurement,setting,value
Cc1ccccc1N1C(=O)c2cc(S(N)(=O)=O)c(Cl)cc2NC1C (stereo not drawn),AC50,[1]; [6],"42.6 µM [falling, partial curve]"
C=C[C@@H]1CN2CC[C@@H]1C[C@@H]2[C@H](O)c1ccnc2ccc(OC)cc12,AC50,[1]; [7],"67.5 µM [falling, partial curve]"
same,AC50,[1]; [6],"84.9 µM [falling, single point]"
CC(C(O)c1ccc(O)cc1)N1CCC(Cc2ccccc2)CC1 (stereo not drawn),AC50,[1]; [7],"33.8 µM [falling, full curve]"
same,AC50,[1]; [6],"42.6 µM [falling, partial curve]"
same,AC50,[2]; [8],"29.1 µM [falling, single point]"
same,AC50,[3],"0.0158 µM [falling, full curve, poor fit]"
O=C(O)C1CCNCC1,AC50,[1]; [6],"95.3 µM [falling, single point]"
COc1cccc(OC)c1OCCNCC1COc2ccccc2O1 (stereo not drawn),AC50,[1]; [7],"84.9 µM [falling, partial curve, poor fit]"
same,AC50,[1]; [6],"95.3 µM [falling, single point]"
COc1cc2nc(N3CCN(C(=O)OCc4ccccc4)C(C(=O)NC(C)(C)C)C3)nc(N)c2cc1OC (stereo not drawn),AC50,[1]; [7],"30.1 µM [falling, partial curve]"
same,AC50,[1]; [6],"33.8 µM [falling, partial curve]"
same,AC50,[2]; measured here: CBG/CBR ratio read-out,"10.3 µM [falling, partial curve]"
same,AC50,[2]; [8],"1.16 µM [rising, full curve]"
OCc1cc(C(O)CNCCCCCCOCCCCc2ccccc2)ccc1O (stereo not drawn),AC50,[1]; [7],"26.9 µM [falling, full curve]"
same,AC50,[1]; [6],"33.8 µM [falling, full curve]"
same,viability change,[4],-11.4%
Cn1c(=O)c2[nH]c(C3CCCC3)nc2n(C)c1=O,AC50,[1]; [7],"84.9 µM [falling, single point]"
same,AC50,[1]; [6],"84.9 µM [falling, single point]"
same,AC50,[2]; [8],"1.03 µM [falling, full curve]"
CCN(CC)CCOC(=O)C1(C2CCCCC2)CCCCC1,AC50,[5],"10 µM [rising, partial curve]"
same,AC50,[1]; [7],"60.1 µM [falling, partial curve]"
same,AC50,[1]; [6],"60.1 µM [falling, partial curve, poor fit]"
